# Measured values reported in PubChem BioAssay AID1487 (National Center for Advancing Translational Sciences (NCATS), 2009).
# Screen size: about 200,000 compounds; about 25 (0.01%) were called active. This list was built around the results that the source calls inconclusive (neither active nor inactive); the mix of calls is not that of the screen. The call rests on the fitted dose curve; in most records, active means well fitted inhibition curve with a large enough effect in the signal ratio, with a control signal flat (not every such curve was filed as active); inconclusive means small, poorly fitted or top-dose-only effect, or effect the other way, or a change in a side signal; inactive means flat fitted curve, though single readings scatter; the % refers to the signal ratio. A potency beside an inconclusive call is a rough fit, not a confirmed value.
# Test: qHTS Assay for Modulators of Lamin A Splicing
# Conditions: HeLa LMNA splicing GFP/RFP minigene ratio, 48 h; ratio change, negative = inhibition: at 46.1 µM (top of the series) unless noted
# Outline: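 Read-out is the ratio of GFP to DsRed2 object intensity, acquired by 488 nm laser-scanning cytometry on HeLa lamin A-EGFP minigene reporter cells. Compound incubation 48 hrs at 37 °C in Opti-MEM with 2% FBS; DMSO 0.5% final.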
# On the % scale 0 is the no-effect control and ±100 the full control effect; potency means the concentration at half of the fitted maximal effect.
SMILES,"ratio change, negative = inhibition",Potency
CCOC(=O)c1sc2ccc(S(=O)(=O)N3CC(C)CC(C)C3)cc2c1N (stereo not drawn),inconclusive: 6.85%,–
COc1ccc(CN2CCN(C(=O)C3CC(=O)N(C4CCCCCC4)C3)CC2)c(OC)c1OC (stereo not drawn),inactive,–
CCc1ccc(C(=O)NN(C(=O)c2ccc(CC)cc2)C(C)(C)C)cc1,inconclusive: -14.1%,–
Cc1cc(/C=N\NC(=O)c2cccs2)c(C)n1-c1ccc2ncccc2c1,inconclusive: -21.2%,–
O=C(NNc1ccccn1)C(=O)NNS(=O)(=O)c1ccc(Cl)cc1,–,"inconclusive: 11.2 µM [inhibitor, single point]"
CCN(c1ccccc1)S(=O)(=O)c1ccc(C(C(=O)OC)C(=O)OC)c([N+](=O)[O-])c1,inconclusive: 1.59% [at 46 µM],–
COc1ccccc1-n1cnc2cc(NCc3cccs3)ccc21,–,"inconclusive: 0.398 µM [inhibitor, full curve, poor fit]"
O=C(Cc1ccccc1)NCCc1csc2nc(-c3ccc(Cl)cc3)nn12,inconclusive: -1.79% [at 46 µM],–
Cc1cccc(Oc2coc3cc(OC(=O)c4cncc(Br)c4)ccc3c2=O)c1,inconclusive: -8.04%,–
COc1ccc(NC(=O)COC(=O)c2ccc(F)cc2F)cc1,inconclusive: 30.8% [at 46 µM],–
O=C(c1cc(-c2ccncc2)nc2ccc(Cl)cc12)N1CCN(Cc2ccc3c(c2)OCO3)CC1,inconclusive: -0.813% [at 46 µM],–
COc1cccc(-c2nnc(NC(=O)Cc3cccs3)s2)c1,inconclusive: 31.6%,–
CCOC(=O)c1ccc(N=c2sc(C(=O)OC)cc(=O)n2CCCN2CCOCC2)cc1,inconclusive: -12.6%,–
Cn1c(CC2Sc3ccccc3NC2=O)nnc1SCC(=O)c1ccc(Cl)cc1 (stereo not drawn),inconclusive: -14% [at 46 µM],–
Cc1c(C)c2ccc(OS(C)(=O)=O)cc2oc1=O,inconclusive: 7.78%,–
CC1CC(C)CN(S(=O)(=O)c2ccc(C(C)(C)C)cc2)C1 (stereo not drawn),inconclusive: -11.2% [at 46 µM],–
Cn1nnnc1SCC(=O)Nc1ccccc1Cl,inactive,–
CC1=C(C(=O)OCc2ccccc2)C(c2ccsc2)C(C#N)=C(N)O1 (stereo not drawn),inactive,–
O=C(NCc1ccco1)c1cc2ccccc2o1,inconclusive: 15.3%,–
COc1ccc(S(=O)(=O)N2CCN(c3ccc4nnc(-c5ccc(F)cc5)n4n3)CC2)cc1,inconclusive: 13.6%,–
CCOc1ccc(C(=O)NC2CC(=O)N(c3ccc(C)cc3)C2)cc1OCC (stereo not drawn),inconclusive: -7.54% [at 46 µM],–

SMILES,"ratio change, negative = inhibition",Potency
COc1ccc(/C=N/Nc2nc(N)cc(Cl)n2)cc1OC,inconclusive: 32% [at 46 µM],–
COc1ccc(NC(=O)CSc2nc3c(c(=O)n2-c2ccc(F)cc2)SCC3)cc1,inactive,–
O=C(COc1ccc(Cl)cc1Cl)OCC(=O)N1CCCc2ccccc21,inactive,–
Cc1ccccc1CNC(=O)CN1C(=O)C2CCCCN2c2ccc(C(=O)N3CCCC3)cc21 (stereo not drawn),inconclusive: -0.589% [at 46 µM],–
Cc1cc(C)cc(NS(=O)(=O)c2cc(C(=O)NCc3ccccn3)ccc2Cl)c1,inactive,–
O=C(c1ccc(-c2ccccc2)cc1)C1CCCN(C(=O)c2ccncc2)C1 (stereo not drawn),inconclusive: 15.9% [at 46 µM],–
CNC(=S)N(Cc1cccs1)Cc1cc2cc(OC)ccc2[nH]c1=O,inactive,–
O=C(Nc1ccc2c(c1)N(C1CCCC1)C(=O)c1ccccc1S2)c1ccccc1F,inconclusive: -48.7% [at 46 µM],–
Cc1ccc(S(=O)(=O)N2CCC(C(=O)N3Cc4ccccc4C3)CC2)cc1,–,"inconclusive: 22.4 µM [fluorescent, single point]"
Cc1cc(NC(=O)c2noc3c2CCCC3)nn1Cc1ccc(Cl)cc1,–,"inconclusive: 35.5 µM [falling, single point]"
COc1ccc2c(c1)CC[C@@H]1[C@@H]2CC[C@]2(C)C(=O)CC[C@@H]12,–,"inconclusive: 35.5 µM [fluorescent, single point]"
CSCCC(NC(=O)c1cncc(Br)c1)C(=O)O (stereo not drawn),inconclusive: -2.78%,–
Cc1ccc(NC(=O)CSc2ccc(-c3ccccn3)nn2)cc1,inconclusive: -27.3% [at 46 µM],–
O=C(Cc1ccccc1)NNC(=O)c1cnccn1,inactive,–
OC(CCN1CCCCC1)(c1ccccc1)C1CCCCC1 (stereo not drawn),inactive,–
Cc1ccc(C(c2nnnn2CS(=O)(=O)c2ccc(C)cc2)N2CCCC2)cc1 (stereo not drawn),inconclusive: -4.44% [at 46 µM],–
CC[N+](CC)(CC)CC[C@](O)(c1ccccc1)C1CCCCC1,inconclusive: 6.35%,–
CCN(CC)c1ccc(NC(=S)NCC2CCCO2)cc1 (stereo not drawn),inconclusive: -35.6% [at 46 µM],–
Cc1cccc(Cn2cccc2CNS(=O)(=O)c2ccccc2F)c1,inactive,–
CCN(CC)CC(=O)Nc1sc2c(c1C(=O)c1ccccc1C)CCC2,inconclusive: -0.0507% [at 46 µM],–
CN(C)c1ccc(CNc2ccc3c(c2)ncn3C)cc1,–,"inconclusive: 35.5 µM [falling, single point]"

SMILES,"ratio change, negative = inhibition",Potency
CCn1nc(C)c(CNC(=O)CC2C(=O)NCCN2Cc2ccc(C)o2)c1C (stereo not drawn),inconclusive: 6.18% [at 46 µM],–
C=CCC1S/C(=N/N=C/c2cccs2)NC1=O (stereo not drawn),inconclusive: -9.33% [at 46 µM],–
Cc1ccc(N=Cc2ccc[nH]2)c(O)c1,inactive,–
CC(C)Nc1nnc(SCC(=O)NCc2ccc3c(c2)OCO3)s1,inconclusive: -13.7% [at 46 µM],–
CCOC(=O)c1cc(-c2ccc(F)cc2)n(CC(=O)NC2CCCCCC2)c1C,inactive,–
CCOC(=O)c1sc(C)c2c1NC(c1ccc(Cl)cc1)NC2=O (stereo not drawn),inconclusive: -5.84%,–
O=C(Cc1ccccc1)Nc1cc(Cl)ccc1Sc1ccccc1,inconclusive: -2.41%,–
Cc1ccc(C)c(N2CCN(C(=O)c3cc4c(=O)n(Cc5ccccc5)ccc4nc3C)CC2)c1,inconclusive: -10.4% [at 46 µM],–
Cc1cc(F)ccc1S(=O)(=O)Nc1ccccc1C(=O)Nc1ncn[nH]1,inconclusive: 11.6%,–
Cc1sc2ncnc(Nc3ccc(N4CCOCC4)cc3)c2c1-c1ccccc1,inactive,–
COc1ccc(C2CC(c3ccc(Cl)cc3)n3nc(N)nc3N2)cc1 (stereo not drawn),inactive,–
CC1CCN(C(=O)CSc2nc3[nH]ncc3c(=O)[nH]2)CC1,inactive,–
CCOC(=O)C1CCC(CN(Cc2ccc(Cl)cc2)S(=O)(=O)c2cccc(Cl)c2C)CC1 (stereo not drawn),inactive,–
CCCCOc1ccc(C(=O)Nc2ccc3c(c2)CCCN3C(=O)c2cccs2)cc1,–,"inconclusive: 2.82 µM [inhibitor, full curve]"
COc1ccc(-c2cc(C(F)F)n3ncc(C(=O)n4ccnc4C)c3n2)cc1,inconclusive: 118%,–
CCOC(=O)C1CCN(C(=O)c2ccccc2NC(=O)c2nsc3ccccc23)CC1,inconclusive: 6.29% [at 46 µM],–
O=c1c2[nH]c3ccccc3c2ncn1C1CCCCC1,inconclusive: 23.8%,–
Cc1ccc(O)c(C(=O)/C=C/c2ccc3c(c2)OCCCO3)c1,inactive,–
O=C(NNc1ccccc1Cl)C(O)(c1cccc(C(F)(F)F)c1)c1cccc(C(F)(F)F)c1,inconclusive: -51.3%,–
N#CC1=C2SCN(Cc3ccccc3)CN2C(=O)CC1c1ccc2c(c1)OCO2 (stereo not drawn),inactive,–
CCCc1cnc2c(c1SCC(=O)NCc1ccc(C)cc1)c(=O)n(C)c(=O)n2C,inactive,–

SMILES,"ratio change, negative = inhibition",Potency
CCN(CC)CCNC(=O)c1ccc(NC(=O)/C=C/c2cc(OC)c(OC)c(OC)c2)cc1,inconclusive: -37.2% [at 46 µM],–
O=C(N/N=C/c1c(Cl)[nH]c2ccccc12)c1sc2ccccc2c1Cl,–,"inconclusive: 14.1 µM [inhibitor, single point]"
COc1ccc(CCNC(=O)COc2ccc(S(=O)(=O)N3CCOCC3)cc2)cc1,inactive,–
CC(C)CN(CC(C)C)C(=O)c1cccc(S(=O)(=O)N2CCc3ccccc32)c1,inconclusive: -23.3% [at 46 µM],–
Cc1cc(-c2n[nH]c(=S)n2/N=C/c2cccs2)n[nH]1,inactive,–
Cc1cnc(C(=O)Nc2cccc(-c3nnc4n3CCCCC4)c2)cn1,inactive,–
Cc1ccc(CNC(=O)C(=O)Nc2c3c(nn2-c2ccc(F)cc2)CSC3)cc1,inconclusive: 52.4% [at 46 µM],–
CCCCC(c1nnnn1CCOC)N1CCN(CC)CC1 (stereo not drawn),inactive,–
O=C(NCc1ccco1)c1ccc(Br)c(S(=O)(=O)N2CCCCC2)c1,inconclusive: -30.1%,–
C/C(=N\NC(N)=S)C12CC3CC(CC(C3)C1)C2,inconclusive: 19.1%,–
CN(Cc1cn(-c2ccccc2)nc1-c1ccc(Cl)cc1)C(=O)CCC(=O)O,inconclusive: 0.823%,–
O=C(Nc1cccc([N+](=O)[O-])c1)c1ccc(CN2CCOCC2)cc1,inconclusive: -43.6%,–
Cc1cc(C)c2nc(SCC(=O)N3CC(=O)Nc4ccccc43)c(C#N)cc2c1,inconclusive: -10.5%,–
O=[N+]([O-])c1nn(-c2ccccc2)n(O)c1=NC1CCN(Cc2ccccc2)CC1,inconclusive: 138% [at 46 µM],–
CCn1cc2c(n1)-c1c(oc(C(=O)Nc3ccc(Br)cc3F)c1C)CC2,inactive,–
Cc1ccc(CN(C(=O)c2ccc(OCC(C)C)cc2)c2ccccn2)o1,inactive,–
COc1ccc2ccccc2c1C1CC(=O)N2CN(Cc3ccco3)CSC2=C1C#N (stereo not drawn),inconclusive: 13.1%,–
O=C(O)c1cc(=O)c2ccc(Cl)cc2[nH]1,inactive,–
C=CCc1cc(C=O)cc(OC)c1OCc1c(Cl)cccc1Cl,inconclusive: -7.56% [at 0.0737 µM],–
FC(F)(F)c1cccc(N2CCN(c3ncnc4c3nc3n4CCCC3)CC2)c1,inconclusive: -9.18% [at 46 µM],–

# One compound at a time (already shown):
# `CC(C)CN(CC(C)C)C(=O)c1cccc(S(=O)(=O)N2CCc3ccccc32)c1` is entered as ratio change, negative = inhibition: inconclusive: -23.3% [at 46 µM]
# `Cc1ccc(CNC(=O)C(=O)Nc2c3c(nn2-c2ccc(F)cc2)CSC3)cc1` is entered as ratio change, negative = inhibition: inconclusive: 52.4% [at 46 µM]
# `FC(F)(F)c1cccc(N2CCN(c3ncnc4c3nc3n4CCCC3)CC2)c1` is entered as ratio change, negative = inhibition: inconclusive: -9.18% [at 46 µM]
# `C=CCc1cc(C=O)cc(OC)c1OCc1c(Cl)cccc1Cl` is entered as ratio change, negative = inhibition: inconclusive: -7.56% [at 0.0737 µM]
